# Data as given in PubChem BioAssay AID1224830 (NIAID, 2016).
# Test: 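Host factors that control LPS-induced TNF expression in human macrophages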 (primary screen)
# Cell system: human THP-1 monocytic leukaemia cells, TNF dual-luciferase reporter clone, PMA-differentiated to macrophage-like cells
# Reagent: siRNA pool against human genes, 50 nM
# Timing: LPS for 4 h, given about 3 days after siRNA transfection
# Challenge: bacterial LPS (TLR4 ligand), 10 ng/ml
# Measurement: 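Ratio of firefly to renilla light, scaled to the plate median and expressed as a robust z-score per replicate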
# Scale: TNF reporter robust z-score: higher = stronger TNF reporter response to LPS
# Hit rule: 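a well is active when its z-score exceeds 2.8 or falls below -1.5; control wells carry no call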
# The whole screen tested about 18,000 reagents; shown is an unselected part. About 2,900 of all reagents (16%) were called active. 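Calls are made per well; low scores hint the gene aids the LPS response, high scores that it dampens it.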 Repeated entries: four replicate wells of each siRNA pool.
target,TNF reporter robust z-score,activity call
PNMA8B,,inactive
PNMA8B,-0.92,inactive
PNMA8B,-1.09,inactive
PNMA8B,-0.94,inactive
PNMA8B,-1.53,active
TAFA2,-0.1,inactive
TAFA2,0.26,inactive
TAFA2,0.58,inactive
TAFA2,1.62,inactive
SMARCA1,-1.68,active
SMARCA1,-1.9,active
SMARCA1,-1.85,active
SMARCA1,-2.02,active
KRT83,-0.43,inactive
KRT83,0.07,inactive
KRT83,0.6,inactive
KRT83,-0.41,inactive
TCN1,-1.13,inactive
TCN1,-1.69,active
TCN1,-1.34,inactive
TCN1,-1.52,active
DCK,-1.21,inactive
DCK,-1.06,inactive
DCK,-0.86,inactive
DCK,-1.04,inactive
KCNK7,-0.4,inactive
KCNK7,1.6,inactive
KCNK7,0.78,inactive
KCNK7,0.28,inactive
TMED6,-1.02,inactive
TMED6,-0.63,inactive
TMED6,-1.03,inactive
TMED6,-0.58,inactive
SLC11A2,-0.96,inactive
SLC11A2,-0.72,inactive
SLC11A2,-0.82,inactive
SLC11A2,-1.02,inactive
ADAM19,-0.54,inactive
ADAM19,0.21,inactive
ADAM19,0.38,inactive
ADAM19,2.17,inactive
KIF18A,-1.3,inactive
KIF18A,-0.23,inactive
KIF18A,-0.83,inactive
KIF18A,-1.16,inactive
RAB27A,-0.14,inactive
RAB27A,-0.75,inactive
RAB27A,0.05,inactive
RAB27A,0.79,inactive
KRT37,-1.3,inactive
KRT37,-1.07,inactive
KRT37,-1.34,inactive
KRT37,-0.67,inactive
PUS7,-1.75,active
PUS7,-1.17,inactive
PUS7,-1.05,inactive
PUS7,-1.47,inactive
CA12,-0.06,inactive
CA12,-0.08,inactive
CA12,0.36,inactive
CA12,-0.49,inactive

22 neighbouring entries already listed:
target,TNF reporter robust z-score,activity call
TMED6,-0.58,inactive
SLC11A2,-0.96,inactive
SLC11A2,-0.72,inactive
SLC11A2,-0.82,inactive
SLC11A2,-1.02,inactive
ADAM19,-0.54,inactive
ADAM19,0.21,inactive
ADAM19,0.38,inactive
ADAM19,2.17,inactive
KIF18A,-1.3,inactive
KIF18A,-0.23,inactive
KIF18A,-0.83,inactive
KIF18A,-1.16,inactive
RAB27A,-0.14,inactive
RAB27A,-0.75,inactive
RAB27A,0.05,inactive
RAB27A,0.79,inactive
KRT37,-1.3,inactive
KRT37,-1.07,inactive
KRT37,-1.34,inactive
KRT37,-0.67,inactive
PUS7,-1.75,active

Next entries follow.
target,TNF reporter robust z-score,activity call
SLC30A7,-0.26,inactive
SLC30A7,-0.6,inactive
SLC30A7,-1.44,inactive
SLC30A7,0.25,inactive
IBTK,0,inactive
IBTK,-0.43,inactive
IBTK,-0.12,inactive
IBTK,0.26,inactive
KLHDC9,4.36,active
KLHDC9,3.41,active
KLHDC9,1.02,inactive
KLHDC9,0.96,inactive
HLA-DMB,2.05,inactive
HLA-DMB,6.42,active
HLA-DMB,1.1,inactive
HLA-DMB,2.1,inactive
STK24,-1.67,active
STK24,-0.13,inactive
STK24,-0.23,inactive
STK24,-0.36,inactive
KRTAP3-3,-0.42,inactive
KRTAP3-3,-0.18,inactive
KRTAP3-3,-1.29,inactive
KRTAP3-3,-0.86,inactive
PAGE1,-0.89,inactive
PAGE1,-0.67,inactive
PAGE1,0,inactive
PAGE1,0.31,inactive
PACRGL,-1.03,inactive
PACRGL,-1.45,inactive
PACRGL,-0.94,inactive
PACRGL,-0.15,inactive
MOV10L1,-0.55,inactive
MOV10L1,-1.34,inactive
MOV10L1,-1.13,inactive
MOV10L1,-0.38,inactive
TTR,-1.05,inactive
TTR,-1.23,inactive
TTR,-1.32,inactive
TTR,-0.75,inactive
COL4A2,-0.98,inactive
COL4A2,-1.24,inactive
COL4A2,-1.06,inactive
COL4A2,-1.11,inactive
CERK,2.38,inactive
CERK,-1.12,inactive
CERK,-1.07,inactive
CERK,-0.47,inactive
PDK2,0.38,inactive
PDK2,-0.2,inactive
PDK2,-0.24,inactive
PDK2,-0.63,inactive
HASPIN,1.63,inactive
HASPIN,1.5,inactive
HASPIN,0.89,inactive
HASPIN,1.76,inactive
TMEM243,-0.21,inactive
TMEM243,-0.25,inactive
TMEM243,-0.45,inactive
TMEM243,0.44,inactive
RSPO1,-0.29,inactive
RSPO1,0.82,inactive
RSPO1,0.36,inactive
RSPO1,0.97,inactive
CFAP298,0.77,inactive
CFAP298,-0.27,inactive
CFAP298,-0.38,inactive
CFAP298,0.03,inactive
ZNF425,-0.81,inactive
ZNF425,-0.49,inactive
ZNF425,-0.68,inactive
ZNF425,0.37,inactive
SLC24A3,-1.63,active
SLC24A3,-1.29,inactive
SLC24A3,-1.78,active
SLC24A3,-1.33,inactive
ABCA6,-0.56,inactive
ABCA6,-0.61,inactive
ABCA6,-0.57,inactive
ABCA6,-0.1,inactive
